No constants are given. Whether binding was seen depends on the method and setting.
What was measured:
[1] = target: TGFβ2 (R&D Systems); assay: SPR
[2] = target: TGFβ1 (R&D Systems); assay: SPR

| binding [1] | binding [2] | Binder |
| --- | --- | --- |
| no binding | no binding | felHclbH636x-K36 (antibody, V domains shown) VH: QVLLVQSGAEVRRPGASVKIFCKASGYIFITYYMHWLRQAPAQGFEWMGQIFPASGSTNYNEMFEGRLTLTADTSTDTAYMELSSLRSADTAVYYCARGDGNYALDAMDYWGHGTIVTVSS VL: DIVMTQTPLSLPVTPGEPASISCRASESVDSYGNSFMHWYLQKPGQSPRLLIYLASNLESGVPSRFSGSGSGTDFTLRISSVEADDVGVYYCQQNNEDPLTFGAGT |
| no binding | no binding | felHclbH636x-K4-1 (antibody, V domains shown) VH: QVLLVQSGAEVRRPGASVKIFCKASGYIFITYYMHWLRQAPAQGFEWMGQIFPASGSTNYNEMFEGRLTLTADTSTDTAYMELSSLRSADTAVYYCARGDGNYALDAMDYWGHGTIVTVSS VL: AITMTQSPGSLAGSPGQQVTMNCRASESVDSYGNSFMHWYQQKPGQHPKLLIYLASNLESGVPDRFSGSGSGTDFTLTISNLQAEDVASYYCQQNNEDPLTFGAGT |
| no binding | no binding | felHclbH1-1x-K1-1 (antibody, V domains shown) VH: QVLLVQSGAEVRTPGASVKIFCKASGYIFITYYMHWVRQSPAQGLEWMGQIFPASGSTNYNEMFEGRLTLTADTSTNTAYMELSSLRSADTAMYYCARGDGNYALDAMDYWGQGTSVTVSS VL: EIQMTQSPSSLSASPGDRVTITCRASESVDSYGNSFMHWYQQKPGKVPKLLIYLASNLESGVPSRFSGSGSGTDFTLTISSLEPEDAATYYCQQNNEDPLTFGAGT |
| no binding | no binding | felHclbH634x-K4-1 (antibody, V domains shown) VH: QVLLVQSGAEVRKPGASVKIFCKTSGYTFITYYVHWLRQAPAQGFEWMGQIFPASGSTNYNEMFEGRLTLTADTSTNTAYMELSSLRSADTAVYYCARGDGNYALDAMDYWGQGALVTVSS VL: AITMTQSPGSLAGSPGQQVTMNCRASESVDSYGNSFMHWYQQKPGQHPKLLIYLASNLESGVPDRFSGSGSGTDFTLTISNLQAEDVASYYCQQNNEDPLTFGAGT |
| no binding | no binding | felHclbH618x-K1-1 (antibody, V domains shown) VH: QVLLVQSGAEVRKPGASVKIFCKASGYTFITYYMHWLRQAPEQGLEWMGQIFPASGSTNYNEMFEGRLTLTADTSTNTAYMELSSLRSADTAMYYCARGDGNYALDAMDYWGQGALVTVSS VL: EIQMTQSPSSLSASPGDRVTITCRASESVDSYGNSFMHWYQQKPGKVPKLLIYLASNLESGVPSRFSGSGSGTDFTLTISSLEPEDAATYYCQQNNEDPLTFGAGT |
| no binding | no binding | felHclbH1-1x-K4-1 (antibody, V domains shown) VH: QVLLVQSGAEVRTPGASVKIFCKASGYIFITYYMHWVRQSPAQGLEWMGQIFPASGSTNYNEMFEGRLTLTADTSTNTAYMELSSLRSADTAMYYCARGDGNYALDAMDYWGQGTSVTVSS VL: AITMTQSPGSLAGSPGQQVTMNCRASESVDSYGNSFMHWYQQKPGQHPKLLIYLASNLESGVPDRFSGSGSGTDFTLTISNLQAEDVASYYCQQNNEDPLTFGAGT |
| no binding | no binding | felHclbH1-1x-K36 (antibody, V domains shown) VH: QVLLVQSGAEVRTPGASVKIFCKASGYIFITYYMHWVRQSPAQGLEWMGQIFPASGSTNYNEMFEGRLTLTADTSTNTAYMELSSLRSADTAMYYCARGDGNYALDAMDYWGQGTSVTVSS VL: DIVMTQTPLSLPVTPGEPASISCRASESVDSYGNSFMHWYLQKPGQSPRLLIYLASNLESGVPSRFSGSGSGTDFTLRISSVEADDVGVYYCQQNNEDPLTFGAGT |
| no binding | no binding | felHclbH636x-K1-1 (antibody, V domains shown) VH: QVLLVQSGAEVRRPGASVKIFCKASGYIFITYYMHWLRQAPAQGFEWMGQIFPASGSTNYNEMFEGRLTLTADTSTDTAYMELSSLRSADTAVYYCARGDGNYALDAMDYWGHGTIVTVSS VL: EIQMTQSPSSLSASPGDRVTITCRASESVDSYGNSFMHWYQQKPGKVPKLLIYLASNLESGVPSRFSGSGSGTDFTLTISSLEPEDAATYYCQQNNEDPLTFGAGT |
| no binding | no binding | felHclbH634x-K1-1 (antibody, V domains shown) VH: QVLLVQSGAEVRKPGASVKIFCKTSGYTFITYYVHWLRQAPAQGFEWMGQIFPASGSTNYNEMFEGRLTLTADTSTNTAYMELSSLRSADTAVYYCARGDGNYALDAMDYWGQGALVTVSS VL: EIQMTQSPSSLSASPGDRVTITCRASESVDSYGNSFMHWYQQKPGKVPKLLIYLASNLESGVPSRFSGSGSGTDFTLTISSLEPEDAATYYCQQNNEDPLTFGAGT |
| no binding | no binding | felHclbH618x-K4-1 (antibody, V domains shown) VH: QVLLVQSGAEVRKPGASVKIFCKASGYTFITYYMHWLRQAPEQGLEWMGQIFPASGSTNYNEMFEGRLTLTADTSTNTAYMELSSLRSADTAMYYCARGDGNYALDAMDYWGQGALVTVSS VL: AITMTQSPGSLAGSPGQQVTMNCRASESVDSYGNSFMHWYQQKPGQHPKLLIYLASNLESGVPDRFSGSGSGTDFTLTISNLQAEDVASYYCQQNNEDPLTFGAGT |
| no binding | no binding | felHclbH618s-K36 (antibody, V domains shown) VH: QVLLVQSGAEVRKPGASVKIFCKASGYTFITYYMHWLRQAPEQGLEWMGRIFPASGSTSYAQKFQGRLTLTADTSTNTAYMELSSLRSADTAMYYCARGDGNYALDAMDYWGQGALVTVSS VL: DIVMTQTPLSLPVTPGEPASISCRASESVDSYGNSFMHWYLQKPGQSPRLLIYLASNLESGVPSRFSGSGSGTDFTLRISSVEADDVGVYYCQQNNEDPLTFGAGT |
| no binding | no binding | felHclbH618x-K36 (antibody, V domains shown) VH: QVLLVQSGAEVRKPGASVKIFCKASGYTFITYYMHWLRQAPEQGLEWMGQIFPASGSTNYNEMFEGRLTLTADTSTNTAYMELSSLRSADTAMYYCARGDGNYALDAMDYWGQGALVTVSS VL: DIVMTQTPLSLPVTPGEPASISCRASESVDSYGNSFMHWYLQKPGQSPRLLIYLASNLESGVPSRFSGSGSGTDFTLRISSVEADDVGVYYCQQNNEDPLTFGAGT |
| no binding | no binding | felHclbH618s-K1-1 (antibody, V domains shown) VH: QVLLVQSGAEVRKPGASVKIFCKASGYTFITYYMHWLRQAPEQGLEWMGRIFPASGSTSYAQKFQGRLTLTADTSTNTAYMELSSLRSADTAMYYCARGDGNYALDAMDYWGQGALVTVSS VL: EIQMTQSPSSLSASPGDRVTITCRASESVDSYGNSFMHWYQQKPGKVPKLLIYLASNLESGVPSRFSGSGSGTDFTLTISSLEPEDAATYYCQQNNEDPLTFGAGT |
| no binding | no binding | felHclbH618s-K4-1 (antibody, V domains shown) VH: QVLLVQSGAEVRKPGASVKIFCKASGYTFITYYMHWLRQAPEQGLEWMGRIFPASGSTSYAQKFQGRLTLTADTSTNTAYMELSSLRSADTAMYYCARGDGNYALDAMDYWGQGALVTVSS VL: AITMTQSPGSLAGSPGQQVTMNCRASESVDSYGNSFMHWYQQKPGQHPKLLIYLASNLESGVPDRFSGSGSGTDFTLTISNLQAEDVASYYCQQNNEDPLTFGAGT |
